# Measured values: the supplement of paper PMC8728848
# The list shows a part of the results.
# B1: PX14375D-bvu-513-34-513 (Bacteroides vulgatus) (protein)
# chain: TEDTFWKDETDFNLALTSCYTPLKNALNGGYYGTRGVMLRIARADEVDFRNDISDVYTVNRFTNSNTNSLTQGMFYQFYNALYRTNSIMQKLEEKKEQFSTDFQNSVKGECLFIRGFYLFQLAKEFKDAPLRLTASQSPSTFPLAKSSQADIWAQAKEDLKTAASLLPITNKIGKPTQGAAYAALGKIYVYEENWQEAINVLEPLTQNPYTYKLVEDFNWNFDDTHENNAESIFELLIEDVGGTDLWGDGENINSTQSNTRPKEYAAAEVGGWYEANPTQQIMDIFWKEKDKDGNFDYRARCSVAWDYEGCTYYQRPFREVFAQDKWKTYWILKYQNWKTQKDEPAPPKSFINERAIRYADVLLMLAEAYMNKGALDTSIGYINQIRRRANLNDYSGPITKEGVFEDLVHQRAIEFFVEGERFYDLRRWGLLEQTLKTCDDTRYKNYQTGKSDNINKFNYFPIPAKELDTNPLCTPSEGW
# Experiments:
# Test in all cases: glycan array binding signal (z-score within array); higher = stronger binding
# Details in all cases: glycan notation: IUPAC condensed, linker removed
# [1] = biological target: Gal(b1-3)GlcNAc(b1-6)[Gal(b1-3)]GalNAc
# In short: (§1)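 Glycan array data came from 3228 arrays in the Consortium for Functional Glycomics database, and only arrays with an available protein sequence were kept. Glycan names were put into IUPAC-condensed notation, and columns mapping to the same glycan were averaged. The binding signal is a within-array Z-score, averaged across arrays of one protein sequence run at different concentrations or buffers and across linkers. A negative Z-score can be read as non-binding.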
# Gal(b1-3)GlcNAc6S = biological target: Gal(b1-3)GlcNAc6S
# In short: as §1
# [2] = biological target: Gal(b1-3)[Fuc(a1-4)]GlcNAc
# In short: as §1
# [3] = biological target: Gal(b1-3)[Fuc(a1-4)]GlcNAc(b1-2)Man
# In short: as §1
# [4] = biological target: Gal(b1-3)[Fuc(a1-4)]GlcNAc(b1-2)Man(a1-3)[Gal(b1-3)[Fuc(a1-4)]GlcNAc(b1-2)Man(a1-6)]Man(b1-4)GlcNAc(b1-4)[Fuc(a1-6)]GlcNAc
# In short: as §1
# [5] = biological target: Gal(b1-3)[Fuc(a1-4)]GlcNAc(b1-3)Gal(b1-3)[Fuc(a1-4)]GlcNAc
# In short: as §1
# [6] = biological target: Gal(b1-3)[Fuc(a1-4)]GlcNAc(b1-3)Gal(b1-4)[Fuc(a1-3)]GlcNAc
# In short: as §1
# [7] = biological target: Gal(b1-3)[Fuc(a1-4)]GlcNAc(b1-6)GalNAc
# In short: as §1
# [8] = biological target: Gal(b1-3)[GlcNAc(b1-6)]GalNAc
# In short: as §1
# [9] = biological target: Gal(b1-3)[Neu5Ac(a2-6)]GalNAc
# In short: as §1
# [10] = biological target: Gal(b1-3)[Neu5Ac(a2-6)]GlcNAc(b1-4)Gal(b1-4)Glc
# In short: as §1
# [11] = biological target: Gal(b1-3)[Neu5Ac(b2-6)]GalNAc
# In short: as §1
# Gal(b1-4)Gal = biological target: Gal(b1-4)Gal
# In short: as §1
# [12] = biological target: Gal(b1-4)GalNAc(a1-3)[Fuc(a1-2)]Gal(b1-4)GlcNAc
# In short: as §1
# [13] = biological target: Gal(b1-4)GalNAc(b1-3)[Fuc(a1-2)]Gal(b1-4)GlcNAc
# In short: as §1
# Gal(b1-4)Glc = biological target: Gal(b1-4)Glc
# In short: as §1
# Gal(b1-4)Glc6S = biological target: Gal(b1-4)Glc6S
# In short: as §1
# Gal(b1-4)GlcNAc = biological target: Gal(b1-4)GlcNAc
# In short: as §1
# [14] = biological target: Gal(b1-4)GlcNAc(a1-6)Gal(b1-4)GlcNAc
# In short: as §1
# Gal(b1-4)GlcNAc(b1-2)Man = biological target: Gal(b1-4)GlcNAc(b1-2)Man
# In short: as §1
# [15] = biological target: Gal(b1-4)GlcNAc(b1-2)Man(a1-3)Man(b1-4)GlcNAc(b1-4)GlcNAc
# In short: as §1
# [16] = biological target: Gal(b1-4)GlcNAc(b1-2)Man(a1-3)[Gal(b1-4)GlcNAc(b1-2)Man(a1-6)]Man(b1-4)GlcNAc(b1-4)GlcNAc
# In short: as §1
# [17] = biological target: Gal(b1-4)GlcNAc(b1-2)Man(a1-3)[Gal(b1-4)GlcNAc(b1-2)Man(a1-6)]Man(b1-4)GlcNAc(b1-4)[Fuc(a1-6)]GlcNAc
# In short: as §1
# [18] = biological target: Gal(b1-4)GlcNAc(b1-2)Man(a1-3)[Gal(b1-4)GlcNAc(b1-2)Man(a1-6)][Gal(b1-4)GlcNAc(b1-4)]Man(b1-4)GlcNAc(b1-4)[Fuc(a1-6)]GlcNAc
# In short: as §1
# [19] = biological target: Gal(b1-4)GlcNAc(b1-2)Man(a1-3)[Gal(b1-4)GlcNAc(b1-2)Man(a1-6)][GlcNAc(b1-4)]Man(b1-4)GlcNAc(b1-4)[Fuc(a1-6)]GlcNAc
# In short: as §1
# [20] = biological target: Gal(b1-4)GlcNAc(b1-2)Man(a1-3)[GlcNAc(b1-2)Man(a1-6)]Man(b1-4)GlcNAc(b1-4)GlcNAc
# In short: as §1
# [21] = biological target: Gal(b1-4)GlcNAc(b1-2)Man(a1-3)[GlcNAc(b1-4)][Gal(b1-4)GlcNAc(b1-2)Man(a1-6)]Man(b1-4)GlcNAc(b1-4)GlcNAc
# In short: as §1
# [22] = biological target: Gal(b1-4)GlcNAc(b1-2)Man(a1-3)[Man(a1-6)]Man(b1-4)GlcNAc(b1-4)GlcNAc
# In short: as §1
# [23] = biological target: Gal(b1-4)GlcNAc(b1-2)Man(a1-6)Man(b1-4)GlcNAc(b1-4)GlcNAc
# In short: as §1
# [24] = biological target: Gal(b1-4)GlcNAc(b1-2)Man(a1-6)[GlcNAc(b1-2)Man(a1-3)]Man(b1-4)GlcNAc(b1-4)GlcNAc
# In short: as §1
# [25] = biological target: Gal(b1-4)GlcNAc(b1-2)Man(a1-6)[Man(a1-3)]Man(b1-4)GlcNAc(b1-4)GlcNAc
# In short: as §1
# [26] = biological target: Gal(b1-4)GlcNAc(b1-2)[Gal(b1-4)GlcNAc(b1-4)]Man(a1-3)[Gal(b1-4)GlcNAc(b1-2)Man(a1-6)]Man(b1-4)GlcNAc(b1-4)GlcNAc
# In short: as §1
# [27] = biological target: Gal(b1-4)GlcNAc(b1-2)[Gal(b1-4)GlcNAc(b1-4)]Man(a1-3)[Gal(b1-4)GlcNAc(b1-2)[Gal(b1-4)GlcNAc(b1-6)]Man(a1-6)]Man(b1-4)GlcNAc(b1-4)GlcNAc
# In short: as §1
# [28] = biological target: Gal(b1-4)GlcNAc(b1-2)[Gal(b1-4)GlcNAc(b1-4)]Man(a1-3)[GlcNAc(b1-4)][Gal(b1-4)GlcNAc(b1-2)Man(a1-6)]Man(b1-4)GlcNAc(b1-4)GlcNAc
# In short: as §1
# [29] = biological target: Gal(b1-4)GlcNAc(b1-2)[Gal(b1-4)GlcNAc(b1-4)]Man(a1-3)[GlcNAc(b1-4)][Gal(b1-4)GlcNAc(b1-2)[Gal(b1-4)GlcNAc(b1-6)]Man(a1-6)]Man(b1-4)GlcNAc(b1-4)GlcNAc
# In short: as §1
# [30] = biological target: Gal(b1-4)GlcNAc(b1-2)[Gal(b1-4)GlcNAc(b1-6)]Man(a1-6)[Gal(b1-4)GlcNAc(b1-2)Man(a1-3)]Man(b1-4)GlcNAc(b1-4)GlcNAc
# In short: as §1
# [31] = biological target: Gal(b1-4)GlcNAc(b1-2)[Gal(b1-4)GlcNAc(b1-6)]Man(a1-6)[Gal(b1-4)GlcNAc(b1-2)Man(a1-3)]Man(b1-4)GlcNAc(b1-4)[Fuc(a1-6)]GlcNAc
# In short: as §1
binder,measurement,setting,value
B1,glycan array binding signal (z-score),[1],-0.157
same,glycan array binding signal (z-score),Gal(b1-3)GlcNAc6S,-0.185
same,glycan array binding signal (z-score),[2],-0.33
same,glycan array binding signal (z-score),[3],0.741
same,glycan array binding signal (z-score),[4],0.796
same,glycan array binding signal (z-score),[5],-0.32
same,glycan array binding signal (z-score),[6],1.36
same,glycan array binding signal (z-score),[7],-0.242
same,glycan array binding signal (z-score),[8],0.895
same,glycan array binding signal (z-score),[9],-0.671
same,glycan array binding signal (z-score),[10],-1.15
same,glycan array binding signal (z-score),[11],0.076
same,glycan array binding signal (z-score),Gal(b1-4)Gal,-0.025
same,glycan array binding signal (z-score),[12],-0.78
same,glycan array binding signal (z-score),[13],-0.803
same,glycan array binding signal (z-score),Gal(b1-4)Glc,-0.132
same,glycan array binding signal (z-score),Gal(b1-4)Glc6S,-0.696
same,glycan array binding signal (z-score),Gal(b1-4)GlcNAc,0.126
same,glycan array binding signal (z-score),[14],0.583
same,glycan array binding signal (z-score),Gal(b1-4)GlcNAc(b1-2)Man,0.304
same,glycan array binding signal (z-score),[15],-0.543
same,glycan array binding signal (z-score),[16],-0.396
same,glycan array binding signal (z-score),[17],0.126
same,glycan array binding signal (z-score),[18],-1.11
same,glycan array binding signal (z-score),[19],0.329
same,glycan array binding signal (z-score),[20],0.615
same,glycan array binding signal (z-score),[21],0.883
same,glycan array binding signal (z-score),[22],-0.045
same,glycan array binding signal (z-score),[23],-0.721
same,glycan array binding signal (z-score),[24],0.262
same,glycan array binding signal (z-score),[25],-0.717
same,glycan array binding signal (z-score),[26],-0.22
same,glycan array binding signal (z-score),[27],0.036
same,glycan array binding signal (z-score),[28],1.37
same,glycan array binding signal (z-score),[29],-0.748
same,glycan array binding signal (z-score),[30],0.469
same,glycan array binding signal (z-score),[31],-0.056
